Measurements as given in patent publication US10591485B2, “Peptide tags for fluorescent labelling of proteins” (UNIVERSITY OF OTTAWA, priority 2015, dated 2020).
Part of at least one peptide drawing is inferred or uncertain, most often the ends. Where a SMILES comes first, the peptide text is derived from it.

Columns and labels:
[1] = Fluorogenic addition reaction kinetics of MBP-dC10 libraries I, II and III with dansyl-dM10 fluorogen 1, plate reader, 28° C.; type: biochemical
Method: Library I with point mutants at position A17 is represented in dark grey, library II with double mutants A16-A17 is represented in light grey, and library III with triple mutants A3-A16-A17 is represented in black. The rate constant for parent MBP-dC10 is represented in white. All measurements were performed at least in duplicate. The reactivity of each single mutant of MBP-dC10 was evaluated through their reaction with dansyl-dM10 fluorogen 1 (Caron, K. et al., Org. Biomol. Chem., 9: 185-197, 2011), commonly used for test purposes. Equimolar concentrations of 50 μM of fluorogen 1 and MBP-dC10 variant were used in pH 7.5 buffer HEPES 50 mM, supplemented with 1 mM of TCEP reducing agent to reduce disulfide bonds that could form during protein purification or storage. […] Progress curves of the fluorogenic addition reaction were acquired with a plate reader that allowed us to study a large number of samples at the same time. Since the dansyl fluorophore is sensitive to its environment, the reaction of each MBP-dC10 variant led to an end point of slightly different fluorescence intensity. We used a simple second order kinetic model A+B→C where reactants A and B were used in equimolar concentrations. The product C is the only fluorescent species in the milieu and its appearance can be directly followed by increase of fluorescence. Use of this model implies that the second thiol addition is extremely fast due to its intramolecular character, and that the second order kinetic constant k2 depends exclusively on the first thiol addition. This reasonable approximation allowed us to evaluate very simply the overall dC10 reactivity modulated by the presence of stabilizing residues in the proximity of cysteines C6 and C13. Reactivity of each MBP-dC10 variant was assessed by determining the second order rate constant of the fluorogenic labelling reaction with a dansyl-dimaleimide fluorogenic molecule, referred to as dansyl-dM10 1 (FIG. 11). […] Biomol. Chem. 9: 185-197, 2011). […] Libraries I, II and III were assayed using a plate reader: briefly, in a reaction scale of 200 μL, 50 μM MBP-dC10 (or variants) and 50 μM dansyl-dM10 1 were mixed in HEPES 50 mM pH 7.5 buffer in the presence of TCEP 1 mM. Fluorescence increase was followed at 28° C. long after completion of the reaction (2 hours) using the Synergy™ H4 Hybrid Multi-Mode Microplate Reader (BioTek, Winooski, Vt., United States) plate reader at 515 nm, upon excitation at 330 nm of the dansyl fluorophore of 1. Second order reaction constants were determined using the initial slope and the final plateau of each kinetic curve. […] Fluorogenic reactions were performed in a plate reader as described above, in duplicate.

[2] = Labelling kinetics of MBP-dC10 and triple mutants with coumarin dimaleimide fluorogen 2, 28° C.; type: biochemical; details: fluorogen 2, FIG. 12

With CC(C)C[C@H](N)C(=O)N[C@@H](CO)C(=O)N[C@@H](CCCCN)C(=O)N[C@@H](C)C(=O)N[C@@H](CCC(=O)O)C(=O)N[C@@H](CS)C(=O)N[C@@H](C)C(=O)N[C@@H](C)C(=O)N[C@@H](CCCNC(=N)N)C(=O)N[C@@H](CCC(=O)O)C(=O)N[C@@H](C)C(=O)N[C@@H](C)C(=O)N[C@@H](CS)C(=O)N[C@@H](CCCNC(=N)N)C(=O)N[C@@H](CCC(=O)O)C(=O)N[C@@H](CCCNC(=N)N)C(=O)N[C@@H](CCCCN)C(=O)N[C@@H](C)C(=O)N[C@@H](CCCNC(=N)N)C(=O)N[C@@H](C)C(=O)NCC(=O)NCC(=O)N[C@@H](CCCCN)C(=O)O [dC10-A3KA16RA17K] (H-LSKAECAAREAACRERKARAGGK-OH; N-terminus and C-terminus assumed) the “reaction rate compared with the parent dC10 tag, in words” value ([1]; concluding statement) was “an order of magnitude faster”, the “reaction rate relative to the parent dC10 sequence” value ([1]; fluorogen 1, FIG. 10) was 10 times and the “reactivity of triple mutant compared with its parent double mutant A16R-A17K” value ([1]; fluorogen 1, FIG. 10) was “slightly more reactive than its parent double mutant A16R-A17K”. For the same compound, the “increase in reactivity towards a dimaleimide fluorogen, triple mutants” value ([1]; fluorogen 1, relative to parent dC10, FIG. 10) was about 10 fold and the “second order rate constant relative to that of the parent dC10 sequence” value [2] was 9 times.
